The supplement of paper PMC4604168 (melanoma cell lines)
The other results are listed elsewhere or left out. Repeats are few or missing, and single values can be far off.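 Imaging used 1,536-well plates; nuclei positive for cleaved PARP by antibody were divided by total DNA-stained nuclei to yield the apoptosis fraction. Doses for screening kept most cells viable, and cell lines differ markedly in resting and induced cleaved-PARP levels.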

Legend:
Test in all cases: cleaved PARP positive nuclei fraction relative to DMSO control; melanoma cells; higher = more apoptosis
Details in all cases: library dose: low library concentration; 72 h
MZ2-MEL = test system: MZ2-MEL
MeWo = test system: MeWo
RPMI7951 = test system: RPMI7951
RVH-421 = test system: RVH-421
SkMel28 = test system: SkMel28
SkMel30 = test system: SkMel30
UACC62 = test system: UACC62
WM115 = test system: WM115
WM1716 = test system: WM1716
WM1745 = test system: WM1745
WM3526 = test system: WM3526
WM3619 = test system: WM3619
WM451Lu = test system: WM451Lu
SkMel5 = test system: SkMel5
UACC257 = test system: UACC257

Row | SMILES | cleaved PARP positive nuclei fraction (MZ2-MEL) [%] | cleaved PARP positive nuclei fraction (MeWo) [%] | cleaved PARP positive nuclei fraction (RPMI7951) [%] | cleaved PARP positive nuclei fraction (RVH-421) [%] | cleaved PARP positive nuclei fraction (SkMel28) [%] | cleaved PARP positive nuclei fraction (SkMel30) [%] | cleaved PARP positive nuclei fraction (UACC62) [%] | cleaved PARP positive nuclei fraction (WM115) [%] | cleaved PARP positive nuclei fraction (WM1716) [%] | cleaved PARP positive nuclei fraction (WM1745) [%] | cleaved PARP positive nuclei fraction (WM3526) [%] | cleaved PARP positive nuclei fraction (WM3619) [%] | cleaved PARP positive nuclei fraction (WM451Lu) [%] | cleaved PARP positive nuclei fraction (SkMel5) [%] | cleaved PARP positive nuclei fraction (UACC257) [%]
1 | CO[C@H]1C[C@@H]2CC[C@@H](C)[C@@](O)(O2)C(=O)C(=O)N2CCCC[C@H]2C(=O)O[C@H]([C@H](C)C[C@@H]2CC[C@@H](OCCO)[C@H](OC)C2)CC(=O)[C@H](C)/C=C(\C)[C@@H](O)[C@@H](OC)C(=O)[C@H](C)C[C@H](C)/C=C/C=C/C=C/1C [everolimus] + Nc1cccc2c1CN(C1CCC(=O)NC1=O)C2=O [lenalidomide] (first compound 0.02 µM, partner dose 1 µM) | 113 | 147 | 201 | 144 | 276 | 70.7 | 389 | 194 | 59.4 | 107 | 373 | 119 | 56.9 |  | 
2 | CO[C@H]1C[C@@H]2CC[C@@H](C)[C@@](O)(O2)C(=O)C(=O)N2CCCC[C@H]2C(=O)O[C@H]([C@H](C)C[C@@H]2CC[C@@H](OCCO)[C@H](OC)C2)CC(=O)[C@H](C)/C=C(\C)[C@@H](O)[C@@H](OC)C(=O)[C@H](C)C[C@H](C)/C=C/C=C/C=C/1C [everolimus] + Cc1cc([N+](=O)[O-])ccc1NS(=O)(=O)c1cc(Cl)ccc1Cl [FH535] (first compound 0.02 µM, partner dose 1 µM) | 227 | 168 | 105 | 42.6 | 1160 | 113 | 384 | 336 | 136 | 110 | 111 | 136 | 40.6 | 77.6 | 94.4
3 | CO[C@H]1C[C@@H]2CC[C@@H](C)[C@@](O)(O2)C(=O)C(=O)N2CCCC[C@H]2C(=O)O[C@H]([C@H](C)C[C@@H]2CC[C@@H](OCCO)[C@H](OC)C2)CC(=O)[C@H](C)/C=C(\C)[C@@H](O)[C@@H](OC)C(=O)[C@H](C)C[C@H](C)/C=C/C=C/C=C/1C [everolimus] + CS(=O)(=O)CCNCc1ccc(-c2ccc3ncnc(Nc4ccc(OCc5cccc(F)c5)c(Cl)c4)c3c2)o1 [lapatinib] (first compound 0.02 µM, partner dose 0.8 µM) | 239 | 80.4 | 206 | 268 | 1050 | 105 | 551 | 206 | 113 | 110 | 382 | 105 | 119 |  | 
4 | CO[C@H]1C[C@@H]2CC[C@@H](C)[C@@](O)(O2)C(=O)C(=O)N2CCCC[C@H]2C(=O)O[C@H]([C@H](C)C[C@@H]2CC[C@@H](OCCO)[C@H](OC)C2)CC(=O)[C@H](C)/C=C(\C)[C@@H](O)[C@@H](OC)C(=O)[C@H](C)C[C@H](C)/C=C/C=C/C=C/1C [everolimus] + CCCS(=O)(=O)Nc1ccc(F)c(C(=O)c2c[nH]c3ncc(Cl)cc23)c1F [PLX4720] (first compound 0.02 µM, partner dose 0.08 µM) | 275 | 138 | 73.2 | 120 | 279 | 112 | 840 | 217 | 45.3 | 111 | 81.8 | 137 | 211 |  | 
5 | CO[C@H]1C[C@@H]2CC[C@@H](C)[C@@](O)(O2)C(=O)C(=O)N2CCCC[C@H]2C(=O)O[C@H]([C@H](C)C[C@@H]2CC[C@@H](OCCO)[C@H](OC)C2)CC(=O)[C@H](C)/C=C(\C)[C@@H](O)[C@@H](OC)C(=O)[C@H](C)C[C@H](C)/C=C/C=C/C=C/1C [everolimus] + CCCCCCCCCCCC1=C(O)C(=O)C=C(O)C1=O [Embelin] (first compound 0.02 µM, partner dose 1.2 µM) | 124 | 98.4 | 80.9 | 26 | 493 | 66.2 | 261 | 296 | 225 | 98.9 | 112 | 137 | 87.1 | 124 | 174
6 | CO[C@H]1C[C@@H]2CC[C@@H](C)[C@@](O)(O2)C(=O)C(=O)N2CCCC[C@H]2C(=O)O[C@H]([C@H](C)C[C@@H]2CC[C@@H](OCCO)[C@H](OC)C2)CC(=O)[C@H](C)/C=C(\C)[C@@H](O)[C@@H](OC)C(=O)[C@H](C)C[C@H](C)/C=C/C=C/C=C/1C [everolimus] + CC1(C)NC(=O)N(c2ccc([N+](=O)[O-])c(C(F)(F)F)c2)C1=O [nilutamide] (first compound 0.02 µM, partner dose 1 µM) | 152 | 459 | 34 | 62.9 | 463 | 105 | 149 | 122 | 212 | 98.8 | 194 | 147 | 122 | 94 | 521
7 | CO[C@H]1C[C@@H]2CC[C@@H](C)[C@@](O)(O2)C(=O)C(=O)N2CCCC[C@H]2C(=O)O[C@H]([C@H](C)C[C@@H]2CC[C@@H](OCCO)[C@H](OC)C2)CC(=O)[C@H](C)/C=C(\C)[C@@H](O)[C@@H](OC)C(=O)[C@H](C)C[C@H](C)/C=C/C=C/C=C/1C [everolimus] + COc1ccc2c(c1)CCC1C2CCC2(C)C(NCCCCCCN3C(=O)C=CC3=O)CCC12 [U73122] (first compound 0.02 µM, partner dose 0.4 µM) | 134 | 121 | 44.6 | 115 | 506 | 397 | 352 | 41 | 206 | 94 | 145 | 191 | 87.1 | 73.5 | 34.9
8 | O=C(O)[C@@H]1[O][Sb](=[O])([O][Sb]2(=[O])[O][C@H]([C@H](O)CO)[C@H](O)[C@H](C(=O)O)[O]2)[O][C@H]([C@H](O)CO)[C@@H]1O (stereo not given in full) [stibogluconate] + C[C@]1(c2nc3c(C(N)=O)cccc3[nH]2)CCCN1 [Veliparib] (first compound 2 µM, partner dose 1.4 µM) | 51.3 | 55.1 | 114 | 38.9 | 86.3 | 85.9 | 111 | 211 | 38.3 | 97.4 | 154 | 87.3 | 73.8 |  | 
9 | CC(C)C[C@H](NC(=O)[C@H](Cc1ccccc1)NC(=O)c1cnccn1)B(O)O [Bortezomib] + Nc1ncn([C@H]2C[C@H](O)[C@@H](CO)O2)c(=O)n1 [decitabine] (first compound 0.001 µM, partner dose 0.1 µM) | 350 | 112 | 518 | 343 | 45.3 | 64.9 | 171 | 85.7 | 1130 | 391 | 88.7 | 637 | 98.9 |  | 
10 | CO[C@H]1C[C@@H]2CC[C@@H](C)[C@@](O)(O2)C(=O)C(=O)N2CCCC[C@H]2C(=O)O[C@H]([C@H](C)C[C@@H]2CC[C@@H](OCCO)[C@H](OC)C2)CC(=O)[C@H](C)/C=C(\C)[C@@H](O)[C@@H](OC)C(=O)[C@H](C)C[C@H](C)/C=C/C=C/C=C/1C [everolimus] + Oc1cc(-c2nc(-c3ccccc3)[nH]c2-c2ccncc2)ccc1Cl [L779450] (first compound 0.02 µM, partner dose 0.2 µM) | 195 | 60.9 | 177 | 118 | 720 | 52 | 270 | 72 | 383 | 117 | 116 | 168 | 98.7 | 156 | 687
11 | CO[C@H]1C[C@@H]2CC[C@@H](C)[C@@](O)(O2)C(=O)C(=O)N2CCCC[C@H]2C(=O)O[C@H]([C@H](C)C[C@@H]2CC[C@@H](OCCO)[C@H](OC)C2)CC(=O)[C@H](C)/C=C(\C)[C@@H](O)[C@@H](OC)C(=O)[C@H](C)C[C@H](C)/C=C/C=C/C=C/1C [everolimus] + N#Cc1c(O)c2c(-c3ccc(-c4ccccc4O)cc3)csc2[nH]c1=O [A769662] (first compound 0.02 µM, partner dose 2 µM) | 109 | 74 | 53.3 | 108 | 526 | 41.4 | 338 | 96.1 | 291 | 102 | 85.7 | 128 | 55.9 | 76.7 | 356
12 | CO[C@H]1C[C@@H]2CC[C@@H](C)[C@@](O)(O2)C(=O)C(=O)N2CCCC[C@H]2C(=O)O[C@H]([C@H](C)C[C@@H]2CC[C@@H](OCCO)[C@H](OC)C2)CC(=O)[C@H](C)/C=C(\C)[C@@H](O)[C@@H](OC)C(=O)[C@H](C)C[C@H](C)/C=C/C=C/C=C/1C [everolimus] + Cc1cc(N2CCOCC2)cc2[nH]c(-c3c(NC[C@@H](O)c4cccc(Cl)c4)cc[nH]c3=O)nc12 [BMS536924] (first compound 0.02 µM, partner dose 0.2 µM) | 279 | 153 | 207 | 54.1 | 137 | 124 | 173 | 294 | 64.1 | 125 | 91.6 | 148 | 114 | 109 | 550
13 | CO[C@H]1C[C@@H]2CC[C@@H](C)[C@@](O)(O2)C(=O)C(=O)N2CCCC[C@H]2C(=O)O[C@H]([C@H](C)C[C@@H]2CC[C@@H](OCCO)[C@H](OC)C2)CC(=O)[C@H](C)/C=C(\C)[C@@H](O)[C@@H](OC)C(=O)[C@H](C)C[C@H](C)/C=C/C=C/C=C/1C [everolimus] + COc1ccc(-c2ccc3c(N4CCOCC4)nc(N4C[C@@H](C)O[C@@H](C)C4)nc3n2)cc1CO [KU0063794] (first compound 0.02 µM, partner dose 0.02 µM) | 223 | 40.7 | 155 | 55.7 | 515 | 171 | 319 | 167 | 72.8 | 92 | 133 | 139 | 77.4 | 76.9 | 320

Random excerpt: 2 records from the list, in no set order.
Row | SMILES | cleaved PARP positive nuclei fraction (MZ2-MEL) [%] | cleaved PARP positive nuclei fraction (MeWo) [%] | cleaved PARP positive nuclei fraction (RPMI7951) [%] | cleaved PARP positive nuclei fraction (RVH-421) [%] | cleaved PARP positive nuclei fraction (SkMel28) [%] | cleaved PARP positive nuclei fraction (SkMel30) [%] | cleaved PARP positive nuclei fraction (UACC62) [%] | cleaved PARP positive nuclei fraction (WM115) [%] | cleaved PARP positive nuclei fraction (WM1716) [%] | cleaved PARP positive nuclei fraction (WM1745) [%] | cleaved PARP positive nuclei fraction (WM3526) [%] | cleaved PARP positive nuclei fraction (WM3619) [%] | cleaved PARP positive nuclei fraction (WM451Lu) [%] | cleaved PARP positive nuclei fraction (SkMel5) [%] | cleaved PARP positive nuclei fraction (UACC257) [%]
4 | CO[C@H]1C[C@@H]2CC[C@@H](C)[C@@](O)(O2)C(=O)C(=O)N2CCCC[C@H]2C(=O)O[C@H]([C@H](C)C[C@@H]2CC[C@@H](OCCO)[C@H](OC)C2)CC(=O)[C@H](C)/C=C(\C)[C@@H](O)[C@@H](OC)C(=O)[C@H](C)C[C@H](C)/C=C/C=C/C=C/1C [everolimus] + CCCS(=O)(=O)Nc1ccc(F)c(C(=O)c2c[nH]c3ncc(Cl)cc23)c1F [PLX4720] (first compound 0.02 µM, partner dose 0.08 µM) | 275 | 138 | 73.2 | 120 | 279 | 112 | 840 | 217 | 45.3 | 111 | 81.8 | 137 | 211 |  | 
13 | CO[C@H]1C[C@@H]2CC[C@@H](C)[C@@](O)(O2)C(=O)C(=O)N2CCCC[C@H]2C(=O)O[C@H]([C@H](C)C[C@@H]2CC[C@@H](OCCO)[C@H](OC)C2)CC(=O)[C@H](C)/C=C(\C)[C@@H](O)[C@@H](OC)C(=O)[C@H](C)C[C@H](C)/C=C/C=C/C=C/1C [everolimus] + COc1ccc(-c2ccc3c(N4CCOCC4)nc(N4C[C@@H](C)O[C@@H](C)C4)nc3n2)cc1CO [KU0063794] (first compound 0.02 µM, partner dose 0.02 µM) | 223 | 40.7 | 155 | 55.7 | 515 | 171 | 319 | 167 | 72.8 | 92 | 133 | 139 | 77.4 | 76.9 | 320
